Hit rate of the full screen: of about 1,100 compounds, about 340 (31%) were called active. Roughly 40% stayed inconclusive and do not appear here. Calls follow the shape of the dose curve; as a rule, active = well fitted inhibition curve with a large enough effect; inconclusive = small, poorly fitted or top-dose-only effect; inactive = flat fitted curve, though single readings scatter. The list shows a part of the results, in another mix than the full data.
% is scaled to controls: 0 for no effect and ±100 for the full control effect.

Sequences of proteins named here, by UniProt entry; tags and fusion partners are left off.
UniProt P48426, whole entry: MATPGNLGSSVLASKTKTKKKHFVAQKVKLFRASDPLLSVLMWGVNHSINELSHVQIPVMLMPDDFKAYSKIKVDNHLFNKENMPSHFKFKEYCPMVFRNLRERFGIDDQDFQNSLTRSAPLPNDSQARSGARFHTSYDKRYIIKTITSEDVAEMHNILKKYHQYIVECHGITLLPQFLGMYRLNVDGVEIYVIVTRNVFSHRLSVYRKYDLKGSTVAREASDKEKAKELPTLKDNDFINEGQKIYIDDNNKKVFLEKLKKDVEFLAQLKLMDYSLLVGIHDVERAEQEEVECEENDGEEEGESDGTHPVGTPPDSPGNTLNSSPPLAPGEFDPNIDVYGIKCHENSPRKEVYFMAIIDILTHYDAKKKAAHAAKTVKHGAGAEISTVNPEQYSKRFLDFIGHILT

In the test the target is Phosphatidylinositol 5-phosphate 4-kinase type-2 alpha (Homo sapiens) (UniProt P48426). Nature of the test: qHTS for Inhibitors of PI5P4K: Confirmation in Primary Assay. Also: nearly all actives have a fitted effect of over 65% in size. The note with it: PI5P4Kalpha enzyme, ADP-Glo luminescence, 60 min; at 76.9 µM (top of the series). An excerpt:
In addition to finding PI5P, we discovered the type II phosphatidylinositol 5-phosphate 4-kinase (PI5P4K) family (alpha, beta, gamma isoforms) that catalyze the conversion of PI5P to PI(4,5)P2. Alternatively, PI(4,5)P2 can also be synthesized through phosphatidylinositol-4-phosphate (PI4P) by the type I phosphatidylinositol 4-phosphate 5-kinases (PI4P5K). These PI5P4K enzymes therefore represent one way by which cells can regulate endogenous PI5P levels and play important roles in insulin signaling and in stress responses. […] A qHTS PI5P4K-alpha ADP-Glo assay was developed to identify specific modulators of human PI5P4K, phosphatidylinositol-5-phosphate 4-kinase (Type II PIPK). This assay was screened against the MLSMR containing ~400,000 small molecules (PubChem AID 652105). […]
2 microL of PI5P4Kalpha/substrate buffer (columns 1-2, 5-48) are dispensed into Greiner white solid bottom 1536-well assay plates; column 3 receives only PI5P4Kalpha buffer as 0x substrate controls; column 4 receives only substrate buffer as 0x PI5P4Kalpha controls. […] They are then transferred to a ViewLux high-throughput CCD imager (PerkinElmer) wherein single end-point measurements of luminescence are acquired using a clear filter.
As for `COc1ccc(C(c2nnnn2-c2ccc3c(c2)OCCO3)N2CCC(n3c(=O)[nH]c4ccccc43)CC2)cc1` (configuration not stated), the activity change, negative = inhibition was inactive: -5.25%.

Take `CCCNC(=O)N1[C@H]2CC[C@@H]1C(C(=O)OC)=C(c1ccc(OC)c(OC)c1)C2`: the activity change, negative = inhibition was inactive: -2.68%.

These data come from PubChem BioAssay AID743286 (National Center for Advancing Translational Sciences (NCATS), 2014).
